# The list shows a part of the results. The main result of the screen is listed elsewhere. These columns were measured beside it and carry no call. Compounds called inactive in the main read-out are mostly missing here. Potencies come from curve fits of mixed quality, noted in brackets.
# Experiment: qHTS Assay for Lipid Storage Modulators in Drosophila S3 Cells;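 on cell number change: cells counted by Cell Tracker Red CMTPX staining in the red channel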
# Settings: BODIPY lipid droplet fluorescence, 18-24 h; for cell number change: measured here: cell count max response, cells fed with added oleic acid
# In short: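 Laser-scanning cytometry quantifies lipid droplet accumulation (500–530 nm total intensity; droplet/cell object ratio) in oleic acid-fed (400 uM added) Drosophila S3 cells treated with a concentration series. 20 uM Triacsin C defined 100% inhibition.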
# [1] = measured here: lipid fluorescence (Fed channel) AC50, cells fed with added oleic acid
# [2] = measured here: cell number channel AC50, cells fed with added oleic acid
SMILES,cell number change,AC50 [1],AC50 [2]
CCc1nnc(NC(=O)c2csc3c2CCC(C)C3)s1 (stereo not drawn),-4.5%,"0.082 µM [falling, full curve]",–
Cc1cccc(C(=O)NNC(=O)c2c(-c3ccccc3Cl)noc2C)c1O,-24.4%,"5.17 µM [falling, single point]",–
CCc1ccc(CNc2ccc3c(c2)ncn3C(C)(C)C)cc1,-11.8%,–,–
COc1ccc(CC(=O)Oc2ccc(C(C)C)cc2)cc1S(=O)(=O)N1CCOCC1,-15.7%,"0.0146 µM [falling, full curve, poor fit]",–
O=C(Nc1nnc(SCc2cccnc2)s1)C1CC(=O)N(c2ccccc2)C1 (stereo not drawn),31.9%,"0.282 µM [rising, full curve, poor fit]","20 µM [rising, partial curve, poor fit]"
Cc1cc(NS(=O)(=O)c2ccc(NC(=S)NC(=O)c3ccc(F)cc3Cl)cc2)no1,57.7%,"0.326 µM [rising, partial curve, poor fit]","29.1 µM [rising, single point]"
COc1ccc(CN2CCn3nc(C(=O)NC(C)C)cc3C2=O)cc1,-1.63%,–,–
Cc1cccc(OC(=O)c2ccc3nccnc3c2)c1,-35.2%,"29.1 µM [falling, single point]","0.411 µM [falling, full curve]"
CCOc1ccc(NC(=O)c2ccccc2OCC(=O)c2ccccc2)cc1,84.3%,"3.66 µM [rising, full curve]","2.31 µM [rising, full curve]"
CC1(C)Cc2c(sc(NC(=O)COc3ccc(Cl)cc3Cl)c2C(N)=O)C(C)(C)N1,4.83%,"0.0259 µM [rising, full curve, poor fit]",–
CCn1cc(S(=O)(=O)c2ccccc2)c(=O)c2cc(F)c(N3CCN(C)CC3)cc21,-44.7%,–,"29.1 µM [falling, single point]"
Cc1ccc(NCc2n[nH]c(=S)n2Cc2ccccc2)cc1Cl,-33.3%,"23.1 µM [falling, single point]","29.1 µM [falling, single point]"
O=C1NC(Cc2ccccc2)c2nc3cc(F)ccc3c(=O)n2-c2ccc(Cl)cc21 (stereo not drawn),-41.6%,"0.00461 µM [rising, full curve, poor fit]","29.1 µM [falling, single point]"
O=C(COc1ncnc2ccc(Br)cc12)NCc1ccc2c(c1)OCO2,52.5%,–,"2.31 µM [rising, partial curve]"
CCOC(=O)C1C(c2ccccc2Cl)NC(=O)N(C)C1(O)C(F)(F)F (stereo not drawn),-17.9%,"29.1 µM [falling, partial curve, poor fit]",–
CNC(=O)c1ccsc1NC(=O)CCS(=O)(=O)c1ccc(Cl)cc1,–,–,"1.3 µM [rising, partial curve]"
O=C(CSCc1ccccc1Cl)NN1C(=O)c2ccccc2C1=O,64.7%,"29.1 µM [rising, single point]",–
CCc1cc(=O)oc2cc(C)cc(O)c12,-32.4%,"0.0517 µM [falling, full curve, poor fit]","0.00461 µM [falling, full curve, poor fit]"
O=C(Nc1ccccc1Cc1ccccc1)c1ccccc1NS(=O)(=O)c1ccc(Cl)s1,-17.5%,"3.26 µM [falling, partial curve]","5.17 µM [rising, single point]"
Cc1ccc(-c2nn3c(C)nnc3s2)cc1NC(=O)c1ccc(OC(C)C)cc1,-24.2%,"1.46 µM [falling, partial curve]",–
CC(C)CC(C(=O)O)N1C(=O)C2C3C=CC(C2C1=O)C1C(=O)N(C(CC(C)C)C(=O)O)C(=O)C31 (stereo not drawn),-14.5%,–,–
COc1ccc(-c2ccnc(SCC(=O)c3ccc(OC)c(OC)c3)n2)cc1,16.7%,"20.6 µM [rising, single point]",–
CC(C)NC(=S)N1CCN(Cc2ccc3c(c2)OCO3)CC1,105%,–,"23.1 µM [rising, partial curve]"
CN(Cc1ccccc1)C(=O)COC(=O)c1cc(NS(=O)(=O)c2cccs2)ccc1O,–,"6.51 µM [falling, single point]",–
Nc1ncn(CC(=O)c2ccccc2)n1,-9.85%,"0.00411 µM [falling, full curve, poor fit]","0.00461 µM [falling, full curve, poor fit]"
COc1cccc(OCCn2cc(C=O)c3ccccc32)c1,-16.1%,"7.31 µM [rising, partial curve]",–
COc1ccc(/C=N/NC(=O)c2nnn(-c3nonc3N)c2-c2cccs2)cc1OC,23.6%,"0.146 µM [rising, full curve, poor fit]",–
O=C(Nc1ccccc1N1CCOCC1)c1ccc(Br)o1,–,–,"1.3 µM [rising, single point]"

SMILES,cell number change,AC50 [1],AC50 [2]
CN1C(c2ccccc2)CC(=NO)CC1c1ccccc1 (stereo not drawn),-40.2%,–,"32.6 µM [falling, single point]"
O=C1NC(=S)S/C1=C\c1ccc2ccccc2c1,-0.874%,"0.13 µM [falling, full curve, poor fit]",–
Cc1cc(C)c(C#N)c(SCS(=O)Cc2ccccc2)n1 (stereo not drawn),-27.9%,"7.31 µM [falling, partial curve]",–
CC(C)CNC(=O)c1c(N)n(/N=C/c2cccnc2)c2nc3ccccc3nc12,14.1%,"0.146 µM [rising, full curve, poor fit]",–
COc1ccc(-n2nc3cc(N)c(Br)cc3n2)cc1,-28.8%,"29.1 µM [falling, single point]",–
Cc1cc(C(=O)OCC(=O)c2ccc(Cl)c([N+](=O)[O-])c2)c2cccc(C)c2n1,-43.8%,"1.03 µM [falling, full curve]","1.03 µM [falling, full curve]"
Cc1ccccc1OCc1nc2ccccc2c(=O)n1/N=C/c1cn[nH]c1-c1ccccc1,-31%,"0.82 µM [rising, partial curve]","32.6 µM [falling, single point]"
CCN(CC)CCOC(=O)C1(c2ccccc2)CCOCC1,-7.57%,"1.3 µM [rising, full curve, poor fit]",–
COc1ccc(CC(=O)NCc2n[nH]c(=S)n2-c2ccccc2OC)cc1,-28.5%,"29.1 µM [falling, single point]",–
CCS(=O)(=O)c1nc(S(=O)(=O)c2ccc(Cl)cc2)c(N2CCC3(CC2)OCCO3)s1,–,"6.51 µM [rising, single point]",–
CCN(CC)C(=O)CC(c1ccc2c(c1)OCO2)c1c(OC)cc(OC)c2c(-c3ccccc3)cc(=O)oc12 (stereo not drawn),1.31%,"2.31 µM [rising, partial curve]",–
O=C(CSc1nnc(-c2ccco2)n1-c1ccccc1)N1CCN(C(=O)c2ccco2)CC1,134%,"16.4 µM [rising, partial curve]","18.4 µM [rising, partial curve]"
CC(=O)Nc1sc(C)c(C)c1C(=O)OCC(=O)Nc1ccccc1,-72.8%,"18.4 µM [falling, partial curve]","20.6 µM [falling, partial curve]"
CC(C)N(C(=O)COC(=O)[C@@H]1CC(O)CN1S(=O)(=O)c1ccc(C(C)(C)C)cc1)C(C)C (stereo partly drawn),–,–,"6.51 µM [rising, partial curve, poor fit]"
Cc1cc(OCC(=O)NCC(c2cccs2)N2CCOCC2)ccc1C(C)C (stereo not drawn),-24.1%,"20.6 µM [falling, partial curve]",–
C=CCNC(=O)c1ccc(C)cc1Cl,12.5%,–,–
Cc1ccc(C)c(NS(=O)(=O)c2ccc(OCC(=O)N3CCCC3)cc2)c1,–,–,"0.0731 µM [rising, full curve, poor fit]"
O=C(O)COc1ccccc1/C=N/Nc1ccc(S(=O)(=O)Nc2ccc(Cl)cc2)cc1[N+](=O)[O-],–,–,"0.517 µM [rising, partial curve]"
COC(=O)[C@@]12CCCCN1[C@H](c1ccc(-c3cc(C(C)=O)cs3)cc1)[C@H]1C(=O)N(C)C(=O)[C@H]12,-53.8%,"6.51 µM [falling, single point]","14.6 µM [falling, partial curve]"
O=C(CCS(=O)(=O)c1ccc(Cl)cc1)NCCN1C(=O)S/C(=C\c2ccccc2F)C1=O,1.18%,"29.1 µM [falling, single point]",–
COc1ccc(-n2ncc3c(=O)n(CC(=O)Nc4ccc(S(=O)(=O)N5CCOCC5)cc4)cnc32)cc1,9.38%,"0.461 µM [rising, single point]",–
Cc1ccc(OCC(=O)N2CCN(c3ccc([N+](=O)[O-])c(N4CCOCC4)c3)CC2)cc1,72.5%,–,"3.66 µM [falling, partial curve]"
O=C1CCCC2=C1C(c1cccc(O)c1)c1c(ccc3ncccc13)N2 (stereo not drawn),-13.1%,–,–
CC(C)(C)N1NC2(CCCCC2)NC1=S,-39.3%,–,"20.6 µM [falling, single point]"
COc1ccc(N=C2SC(CC(=O)Nc3ccccc3)C(=O)N2Cc2ccccn2)cc1 (stereo not drawn),57.6%,"0.082 µM [rising, full curve]","0.0146 µM [rising, full curve]"
NC(=O)COc1ccc(/C=N\NC(=O)c2ccc(-c3ccccc3)cc2)cc1,15%,"23.1 µM [rising, partial curve, poor fit]",–
CN(c1ccccc1)S(=O)(=O)c1cccc(NC(=O)c2cccc(C#N)c2)c1,1.1%,"1.84 µM [rising, partial curve]",–

# No new results follow: entries from further up.
SMILES,cell number change,AC50 [1],AC50 [2]
CC(=O)Nc1sc(C)c(C)c1C(=O)OCC(=O)Nc1ccccc1,-72.8%,"18.4 µM [falling, partial curve]","20.6 µM [falling, partial curve]"
CC(C)N(C(=O)COC(=O)[C@@H]1CC(O)CN1S(=O)(=O)c1ccc(C(C)(C)C)cc1)C(C)C (stereo partly drawn),–,–,"6.51 µM [rising, partial curve, poor fit]"
Cc1cc(OCC(=O)NCC(c2cccs2)N2CCOCC2)ccc1C(C)C (stereo not drawn),-24.1%,"20.6 µM [falling, partial curve]",–
C=CCNC(=O)c1ccc(C)cc1Cl,12.5%,–,–
Cc1ccc(C)c(NS(=O)(=O)c2ccc(OCC(=O)N3CCCC3)cc2)c1,–,–,"0.0731 µM [rising, full curve, poor fit]"

# — PubChem BioAssay AID2685 (National Center for Advancing Translational Sciences (NCATS), 2010)
